Measurements from PMC5731909.
Results are given in words; binding and its absence hold for the method and conditions named. Binding seen in cells or lysates may run through a third protein. Some entries that bind do so weakly or less than the wild type.

Sequences of proteins named here, by UniProt entry; tags and fusion partners are left off. Residues count along the entry.
UniProt Q3UUI3, residues 28-230: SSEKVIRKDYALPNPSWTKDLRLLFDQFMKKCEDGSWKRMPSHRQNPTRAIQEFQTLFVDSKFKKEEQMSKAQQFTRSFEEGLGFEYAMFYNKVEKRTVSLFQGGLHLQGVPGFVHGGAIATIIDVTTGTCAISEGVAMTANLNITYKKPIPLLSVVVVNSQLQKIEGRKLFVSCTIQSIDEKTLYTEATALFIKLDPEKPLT
UniProt Q8BTG7: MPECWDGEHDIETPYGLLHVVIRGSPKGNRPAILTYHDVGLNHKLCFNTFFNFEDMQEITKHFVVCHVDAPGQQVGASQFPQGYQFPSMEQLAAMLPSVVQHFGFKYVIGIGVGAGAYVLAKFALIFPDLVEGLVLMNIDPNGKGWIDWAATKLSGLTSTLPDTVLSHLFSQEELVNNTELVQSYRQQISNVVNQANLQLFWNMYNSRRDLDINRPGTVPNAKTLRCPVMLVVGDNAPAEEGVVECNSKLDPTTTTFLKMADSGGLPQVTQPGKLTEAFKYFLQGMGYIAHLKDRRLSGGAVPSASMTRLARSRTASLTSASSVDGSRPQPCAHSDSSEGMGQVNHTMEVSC

Assays:
[1] = target: carboxyl-terminal modulator protein (CTMP) (mouse (endogenous in C2C12)) (UniProt Q3UUI3); assay: co-IP; lysates of NDRG4-knockdown (siNDRG4) and control C2C12 cells; immunoprecipitated with anti-CTMP antibody or control IgG; blotted with anti-pAkt, anti-NDRG4 and anti-CTMP antibodies
[2] = target: N-Myc downstream-regulated gene 4 (NDRG4) (mouse (endogenous in C2C12)) (UniProt Q8BTG7); assay: co-IP; lysate of C2C12 cells differentiated for 3 days; immunoprecipitated with anti-NDRG4 antibody or control IgG overnight at 4°C, Protein A + G agarose beads, five washes with lysis buffer; blotted with PTEN and CTMP antibodies

For “N-Myc downstream-regulated gene 4 (NDRG4) (from UniProt Q8BTG7 1-352)”, the binding [1] was “binds”.

In the case of “carboxyl-terminal modulator protein (CTMP) (from UniProt Q3UUI3 28-230)”, the binding [2] is reported as “binds”.
